# This is one part of the list. Repeats in this data set agree poorly, so a single value says little.
# Test system: MDA-MB-468
# Assay: phospho-S6 immunofluorescence (DAPI-normalised), per-plate z-score; higher = higher phospho-S6 signal (less pathway suppression)
# Conditions: 24 h
# Method: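 GPCR-targeted compound library (MedChemExpress HY-L006) tested on MDA-MB-468 PTEN-null TNBC cells in 384-well plates at 0.1, 1 or 10 uM, combined with vehicle, GDC0941 450 nM or lapatinib 1 uM, for 24 h. Phospho-S6 (S240/244) immunofluorescence normalised to DAPI and expressed as a per-plate z-score; values are the mean of biological triplicates.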
# [1] = compound 0.1 µM, co-treatment: GDC0941 450 nM
# [2] = compound 0.1 µM, co-treatment: lapatinib 1 uM
# [3] = compound 0.1 µM, co-treatment: vehicle
# [4] = compound 1 µM, co-treatment: GDC0941 450 nM
# [5] = compound 1 µM, co-treatment: lapatinib 1 uM
# [6] = compound 1 µM, co-treatment: vehicle
# [7] = compound 10 µM, co-treatment: GDC0941 450 nM
# [8] = compound 10 µM, co-treatment: lapatinib 1 uM
# [9] = compound 10 µM, co-treatment: vehicle
Compound,phospho-S6 immunofluorescence (z-score) [1],phospho-S6 immunofluorescence (z-score) [2],phospho-S6 immunofluorescence (z-score) [3],phospho-S6 immunofluorescence (z-score) [4],phospho-S6 immunofluorescence (z-score) [5],phospho-S6 immunofluorescence (z-score) [6],phospho-S6 immunofluorescence (z-score) [7],phospho-S6 immunofluorescence (z-score) [8],phospho-S6 immunofluorescence (z-score) [9]
CN(C)N(C)C(=O)[C@@]1(Cc2ccccc2)CCCN(C(=O)[C@@H](Cc2c[nH]c3ccccc23)NC(=O)C(C)(C)N)C1 [Anamorelin],0.81,-0.48,-0.5,-0.13,-0.68,1.39,–,–,–
C[C@@H](NCCCc1cccc(C(F)(F)F)c1)c1cccc2ccccc12 [Cinacalcet],0.07,-0.29,-0.45,-0.24,-1.46,-0.87,-5.01,-7.68,-6.21
Cc1cccn2c(=O)c(C=C(C#N)c3nc4ccccc4s3)c(Oc3ccc(F)cc3)nc12,-0.39,-0.25,-0.83,0.69,0.41,-0.12,0.33,1.14,-0.48
Nc1nc(N)nc(-c2cc(Cl)ccc2Cl)n1 [Irsogladine],-0.67,-0.02,-0.88,0.42,0.25,0.09,-0.7,0.22,-1.11
CN1CCN(c2cc(-c3ccccc3)nc(N)n2)CC1,0.92,0.56,-0.46,0.11,0.29,0.36,0.39,0.06,1.14

# From the supplement of paper PMC7411640
